Data: US8323673B2, “Concentrated, non-foaming solution of quaternary ammonium compounds and methods of use” (University of Arkansas, priority 1996, dated 2012)
For at least one compound, name, drawing or mass did not settle the structure.

How the values were obtained:
E. coli O157:H7 = test: Activity in planktonic cells (suspension); type: cell-based, Escherichia coli O157:H7
S. typhimurium = test: Pre-chill poultry spraying with 0.1% cetylpyridinium chloride; set-up: species or system Salmonella typhimurium; conditions: 30 and 90 second spraying of 1000 ppm CPC at 30, 50, and 120 psi

CCCCCCCCCCCCCCCC[n+]1ccccc1 [CPC, cetylpyridinium chloride]
reduction of viable E. coli O157:H7 in suspension (E. coli O157:H7): complete reduction
reduction in the number of Salmonella on chicken carcasses (S. typhimurium): significant reduction
